Assay results: publication PMC12002173

Biological target: T1, PHLPP2 (PH domain leucine-rich repeat-containing protein phosphatase 2), full-length human (human) (UniProt Q6ZVD8)
T1 sequence: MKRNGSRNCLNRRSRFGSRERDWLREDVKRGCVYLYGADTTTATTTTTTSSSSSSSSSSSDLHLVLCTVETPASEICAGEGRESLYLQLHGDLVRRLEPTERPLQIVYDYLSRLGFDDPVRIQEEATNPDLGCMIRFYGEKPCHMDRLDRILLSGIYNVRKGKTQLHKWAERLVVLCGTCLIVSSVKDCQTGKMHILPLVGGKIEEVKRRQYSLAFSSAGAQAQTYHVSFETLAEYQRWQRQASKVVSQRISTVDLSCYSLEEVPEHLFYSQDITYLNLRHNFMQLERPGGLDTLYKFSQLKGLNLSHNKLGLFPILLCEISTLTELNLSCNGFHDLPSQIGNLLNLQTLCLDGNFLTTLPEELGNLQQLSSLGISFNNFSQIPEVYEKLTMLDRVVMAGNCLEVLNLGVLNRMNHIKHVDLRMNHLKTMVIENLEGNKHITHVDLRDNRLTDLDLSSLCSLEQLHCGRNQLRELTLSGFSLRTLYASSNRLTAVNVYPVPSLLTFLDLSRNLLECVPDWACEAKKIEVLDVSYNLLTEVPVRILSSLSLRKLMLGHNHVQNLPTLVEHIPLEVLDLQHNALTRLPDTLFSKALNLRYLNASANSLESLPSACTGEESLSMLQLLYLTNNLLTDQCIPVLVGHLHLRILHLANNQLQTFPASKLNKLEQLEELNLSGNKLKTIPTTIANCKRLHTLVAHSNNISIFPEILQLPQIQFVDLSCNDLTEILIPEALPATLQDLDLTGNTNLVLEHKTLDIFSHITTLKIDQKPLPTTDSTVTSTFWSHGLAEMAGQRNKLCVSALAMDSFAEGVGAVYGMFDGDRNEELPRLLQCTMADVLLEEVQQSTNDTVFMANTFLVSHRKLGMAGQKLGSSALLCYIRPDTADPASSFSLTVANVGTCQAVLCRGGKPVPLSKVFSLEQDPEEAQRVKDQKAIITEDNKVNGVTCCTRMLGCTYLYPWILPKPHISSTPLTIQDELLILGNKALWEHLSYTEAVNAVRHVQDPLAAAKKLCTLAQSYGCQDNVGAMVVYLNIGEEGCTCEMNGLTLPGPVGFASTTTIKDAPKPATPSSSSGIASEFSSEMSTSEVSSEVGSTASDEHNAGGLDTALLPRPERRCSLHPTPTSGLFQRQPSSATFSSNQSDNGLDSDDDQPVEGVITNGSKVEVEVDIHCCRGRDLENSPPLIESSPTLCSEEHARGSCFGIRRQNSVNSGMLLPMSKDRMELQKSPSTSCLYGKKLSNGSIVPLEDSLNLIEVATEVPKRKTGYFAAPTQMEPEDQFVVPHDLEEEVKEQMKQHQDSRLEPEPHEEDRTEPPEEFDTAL
Assay: affinity purification with mass spectrometry; peptide fingerprinting mass spectrometry of GST-tagged PHLPP2 purified from Sf9 cells by affinity, ion exchange and size-exclusion chromatography; Sf9 proteins found in the preparation

binding | Substance
no binding | Spodoptera frugiperda PP2A A-subunit
no binding | Spodoptera frugiperda PP2A B55 (B) regulatory subunit
no binding | Spodoptera frugiperda PP2A catalytic (C) subunit (enzyme)

No constants are given. Whether binding was seen depends on the method and setting. Binding seen in cells or lysates may run through a third protein. Here binding means that the protein was enriched with, or labelled near, the bait; the list need not be complete. No binding means not detected with the bait.
